Changes are numbered by the printed parent chain. No constants are given. Whether binding was seen depends on the method and setting. Some entries that bind do so weakly or less than the wild type.
B1: Anti-CD137 clone 2-9 IgG2 wt (antibody, V domains shown)
VH: QVQLVQSGAEVKKPGASVKASCKASGFNIQDTYIHWVRQAPGQGLEWMGRIDPANGNSEYAQKFQGRVTMTRDTSTSTVYMELSSLRSEDTAVYYCTTGNLHYALMDYWGQGTSVTVSS
VL: DIQMTQSPSSVSASVGDRVTITCKASQPINTYLSWYQQKPGKAPKLLIYRVNRKVDGVPSRFSGSGSGTDFTLTISSLQPEDFATYYCLQYLDFPYTFGGGTKLEIKR
B2: Clone 3 Fab (Fab, V domains shown)
VH: B1 VH with A20V, I29P, Q30K, N57F, S58T
VL: B1 VL with P28A, V51A, K54M, P80H, Y91S, L92D
B3: Clone 9 Fab (Fab, V domains shown)
VH: B1 VH with A20V, I29L, Q30K, R50K, S58T
VL: B1 VL with P28A, N30A, V51A, K54M, V55Y, Y91F, L92D
B4: Clone 23 Fab (Fab, V domains shown)
VH: B1 VH with A20V, Q30K, R50K, N57Q, S58T
VL: B1 VL with P28A, V51A, K54M, D56G, L92R
B5: Clone 25 Fab (Fab, V domains shown)
VH: B1 VH with A20V, A104G
VL: B1 VL with P28A, V51D, L92Q, T97K
B6: Clone 33 Fab (Fab, V domains shown)
VH: B1 VH with A20V, Q30K, H35Q, R50K, S58T, E59M
VL: B1 VL with P28T, V51A, K54M, V55P, L92D
B7: Clone 35 Fab (Fab, V domains shown)
VH: B1 VH with A20V, Q30N, N57Y, S58T
VL: B1 VL with P28A, N30A, V51A, K54M, Y91F, L92Q
B8: Clone 5 Fab (Fab, V domains shown)
VH: B1 VH with A20V, Q30R, R50K, S58T, A104G
VL: B1 VL with P28A, L33H, K54M
B9: Clone 18 Fab (Fab, V domains shown)
VH: B1 VH with A20V, K23Q, Q30K, E46G, R50K, N57M, S58T, M70V
VL: B1 VL with P28A, I29P, V51A, K54M, L92E
B10: Clone 19 Fab (Fab, V domains shown)
VH: B1 VH with A20V, I29M, Q30K, R50K, N57A, S58T, A104G
VL: B1 VL with P28A, V51A, K54M, V55G, Y91S, L92D
B11: Clone 20 Fab (Fab, V domains shown)
VH: B1 VH with A20V, I29M, Q30K, R50K, N57D, S58T
VL: B1 VL with P28A, V51A, K54A
B12: Clone 2-9 Fab (Fab, V domains shown)
VH: B1 VH
VL: B1 VL
B13: Clone 2-11 Fab (Fab, V domains shown)
VH: B1 VH with A20V, Q30K, R50K, N57G, S58T
VL: B1 VL with L92V

Chains of the proteins cited; added tags and fusions are not shown. Residues count along the entry.
UniProt A9YYE7, residues 24-186: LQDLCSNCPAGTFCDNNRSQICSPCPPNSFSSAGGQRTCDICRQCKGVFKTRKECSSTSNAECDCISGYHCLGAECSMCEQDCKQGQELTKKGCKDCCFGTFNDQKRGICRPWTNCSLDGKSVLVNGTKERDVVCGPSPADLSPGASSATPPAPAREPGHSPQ

Legend:
[1] = biological target: Cyno CD137-his (cynomolgus monkey) (UniProt A9YYE7); experiment: BLI (Octet Red 96)
[2] = biological target: cynomolgus-CD137 ECD (cynomolgus) (UniProt A9YYE7); experiment: ELISA of Fab in supernatants of SS320 cells

Binder	binding [1]	binding [2]
B1	binds	–
B2	–	binds
B3	–	binds
B4	–	binds
B5	–	binds
B6	–	binds
B7	–	binds
B8	–	binds
B9	–	binds
B10	–	binds
B11	–	binds
B12	–	binds
B13	–	binds
